Experimental findings from the supplement of paper PMC7666118 are described below.

By UniProt entry, the sequences of proteins in these tests, tags left out. Where a name states a change or a piece, a line headed by the entry shows the natural chain unless it says otherwise.
UniProt Q9HBH7: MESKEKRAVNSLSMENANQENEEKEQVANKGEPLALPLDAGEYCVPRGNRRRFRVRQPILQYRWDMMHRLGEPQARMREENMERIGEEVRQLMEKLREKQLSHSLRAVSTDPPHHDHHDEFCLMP
UniProt Q9Y5K8, whole entry: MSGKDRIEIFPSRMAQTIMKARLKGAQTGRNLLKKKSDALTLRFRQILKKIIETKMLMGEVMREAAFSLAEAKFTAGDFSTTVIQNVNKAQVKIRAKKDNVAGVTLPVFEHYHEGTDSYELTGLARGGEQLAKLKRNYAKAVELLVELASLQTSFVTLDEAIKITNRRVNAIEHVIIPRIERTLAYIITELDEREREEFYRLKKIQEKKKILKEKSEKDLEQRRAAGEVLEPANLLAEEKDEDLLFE
UniProt Q9NR09, whole entry: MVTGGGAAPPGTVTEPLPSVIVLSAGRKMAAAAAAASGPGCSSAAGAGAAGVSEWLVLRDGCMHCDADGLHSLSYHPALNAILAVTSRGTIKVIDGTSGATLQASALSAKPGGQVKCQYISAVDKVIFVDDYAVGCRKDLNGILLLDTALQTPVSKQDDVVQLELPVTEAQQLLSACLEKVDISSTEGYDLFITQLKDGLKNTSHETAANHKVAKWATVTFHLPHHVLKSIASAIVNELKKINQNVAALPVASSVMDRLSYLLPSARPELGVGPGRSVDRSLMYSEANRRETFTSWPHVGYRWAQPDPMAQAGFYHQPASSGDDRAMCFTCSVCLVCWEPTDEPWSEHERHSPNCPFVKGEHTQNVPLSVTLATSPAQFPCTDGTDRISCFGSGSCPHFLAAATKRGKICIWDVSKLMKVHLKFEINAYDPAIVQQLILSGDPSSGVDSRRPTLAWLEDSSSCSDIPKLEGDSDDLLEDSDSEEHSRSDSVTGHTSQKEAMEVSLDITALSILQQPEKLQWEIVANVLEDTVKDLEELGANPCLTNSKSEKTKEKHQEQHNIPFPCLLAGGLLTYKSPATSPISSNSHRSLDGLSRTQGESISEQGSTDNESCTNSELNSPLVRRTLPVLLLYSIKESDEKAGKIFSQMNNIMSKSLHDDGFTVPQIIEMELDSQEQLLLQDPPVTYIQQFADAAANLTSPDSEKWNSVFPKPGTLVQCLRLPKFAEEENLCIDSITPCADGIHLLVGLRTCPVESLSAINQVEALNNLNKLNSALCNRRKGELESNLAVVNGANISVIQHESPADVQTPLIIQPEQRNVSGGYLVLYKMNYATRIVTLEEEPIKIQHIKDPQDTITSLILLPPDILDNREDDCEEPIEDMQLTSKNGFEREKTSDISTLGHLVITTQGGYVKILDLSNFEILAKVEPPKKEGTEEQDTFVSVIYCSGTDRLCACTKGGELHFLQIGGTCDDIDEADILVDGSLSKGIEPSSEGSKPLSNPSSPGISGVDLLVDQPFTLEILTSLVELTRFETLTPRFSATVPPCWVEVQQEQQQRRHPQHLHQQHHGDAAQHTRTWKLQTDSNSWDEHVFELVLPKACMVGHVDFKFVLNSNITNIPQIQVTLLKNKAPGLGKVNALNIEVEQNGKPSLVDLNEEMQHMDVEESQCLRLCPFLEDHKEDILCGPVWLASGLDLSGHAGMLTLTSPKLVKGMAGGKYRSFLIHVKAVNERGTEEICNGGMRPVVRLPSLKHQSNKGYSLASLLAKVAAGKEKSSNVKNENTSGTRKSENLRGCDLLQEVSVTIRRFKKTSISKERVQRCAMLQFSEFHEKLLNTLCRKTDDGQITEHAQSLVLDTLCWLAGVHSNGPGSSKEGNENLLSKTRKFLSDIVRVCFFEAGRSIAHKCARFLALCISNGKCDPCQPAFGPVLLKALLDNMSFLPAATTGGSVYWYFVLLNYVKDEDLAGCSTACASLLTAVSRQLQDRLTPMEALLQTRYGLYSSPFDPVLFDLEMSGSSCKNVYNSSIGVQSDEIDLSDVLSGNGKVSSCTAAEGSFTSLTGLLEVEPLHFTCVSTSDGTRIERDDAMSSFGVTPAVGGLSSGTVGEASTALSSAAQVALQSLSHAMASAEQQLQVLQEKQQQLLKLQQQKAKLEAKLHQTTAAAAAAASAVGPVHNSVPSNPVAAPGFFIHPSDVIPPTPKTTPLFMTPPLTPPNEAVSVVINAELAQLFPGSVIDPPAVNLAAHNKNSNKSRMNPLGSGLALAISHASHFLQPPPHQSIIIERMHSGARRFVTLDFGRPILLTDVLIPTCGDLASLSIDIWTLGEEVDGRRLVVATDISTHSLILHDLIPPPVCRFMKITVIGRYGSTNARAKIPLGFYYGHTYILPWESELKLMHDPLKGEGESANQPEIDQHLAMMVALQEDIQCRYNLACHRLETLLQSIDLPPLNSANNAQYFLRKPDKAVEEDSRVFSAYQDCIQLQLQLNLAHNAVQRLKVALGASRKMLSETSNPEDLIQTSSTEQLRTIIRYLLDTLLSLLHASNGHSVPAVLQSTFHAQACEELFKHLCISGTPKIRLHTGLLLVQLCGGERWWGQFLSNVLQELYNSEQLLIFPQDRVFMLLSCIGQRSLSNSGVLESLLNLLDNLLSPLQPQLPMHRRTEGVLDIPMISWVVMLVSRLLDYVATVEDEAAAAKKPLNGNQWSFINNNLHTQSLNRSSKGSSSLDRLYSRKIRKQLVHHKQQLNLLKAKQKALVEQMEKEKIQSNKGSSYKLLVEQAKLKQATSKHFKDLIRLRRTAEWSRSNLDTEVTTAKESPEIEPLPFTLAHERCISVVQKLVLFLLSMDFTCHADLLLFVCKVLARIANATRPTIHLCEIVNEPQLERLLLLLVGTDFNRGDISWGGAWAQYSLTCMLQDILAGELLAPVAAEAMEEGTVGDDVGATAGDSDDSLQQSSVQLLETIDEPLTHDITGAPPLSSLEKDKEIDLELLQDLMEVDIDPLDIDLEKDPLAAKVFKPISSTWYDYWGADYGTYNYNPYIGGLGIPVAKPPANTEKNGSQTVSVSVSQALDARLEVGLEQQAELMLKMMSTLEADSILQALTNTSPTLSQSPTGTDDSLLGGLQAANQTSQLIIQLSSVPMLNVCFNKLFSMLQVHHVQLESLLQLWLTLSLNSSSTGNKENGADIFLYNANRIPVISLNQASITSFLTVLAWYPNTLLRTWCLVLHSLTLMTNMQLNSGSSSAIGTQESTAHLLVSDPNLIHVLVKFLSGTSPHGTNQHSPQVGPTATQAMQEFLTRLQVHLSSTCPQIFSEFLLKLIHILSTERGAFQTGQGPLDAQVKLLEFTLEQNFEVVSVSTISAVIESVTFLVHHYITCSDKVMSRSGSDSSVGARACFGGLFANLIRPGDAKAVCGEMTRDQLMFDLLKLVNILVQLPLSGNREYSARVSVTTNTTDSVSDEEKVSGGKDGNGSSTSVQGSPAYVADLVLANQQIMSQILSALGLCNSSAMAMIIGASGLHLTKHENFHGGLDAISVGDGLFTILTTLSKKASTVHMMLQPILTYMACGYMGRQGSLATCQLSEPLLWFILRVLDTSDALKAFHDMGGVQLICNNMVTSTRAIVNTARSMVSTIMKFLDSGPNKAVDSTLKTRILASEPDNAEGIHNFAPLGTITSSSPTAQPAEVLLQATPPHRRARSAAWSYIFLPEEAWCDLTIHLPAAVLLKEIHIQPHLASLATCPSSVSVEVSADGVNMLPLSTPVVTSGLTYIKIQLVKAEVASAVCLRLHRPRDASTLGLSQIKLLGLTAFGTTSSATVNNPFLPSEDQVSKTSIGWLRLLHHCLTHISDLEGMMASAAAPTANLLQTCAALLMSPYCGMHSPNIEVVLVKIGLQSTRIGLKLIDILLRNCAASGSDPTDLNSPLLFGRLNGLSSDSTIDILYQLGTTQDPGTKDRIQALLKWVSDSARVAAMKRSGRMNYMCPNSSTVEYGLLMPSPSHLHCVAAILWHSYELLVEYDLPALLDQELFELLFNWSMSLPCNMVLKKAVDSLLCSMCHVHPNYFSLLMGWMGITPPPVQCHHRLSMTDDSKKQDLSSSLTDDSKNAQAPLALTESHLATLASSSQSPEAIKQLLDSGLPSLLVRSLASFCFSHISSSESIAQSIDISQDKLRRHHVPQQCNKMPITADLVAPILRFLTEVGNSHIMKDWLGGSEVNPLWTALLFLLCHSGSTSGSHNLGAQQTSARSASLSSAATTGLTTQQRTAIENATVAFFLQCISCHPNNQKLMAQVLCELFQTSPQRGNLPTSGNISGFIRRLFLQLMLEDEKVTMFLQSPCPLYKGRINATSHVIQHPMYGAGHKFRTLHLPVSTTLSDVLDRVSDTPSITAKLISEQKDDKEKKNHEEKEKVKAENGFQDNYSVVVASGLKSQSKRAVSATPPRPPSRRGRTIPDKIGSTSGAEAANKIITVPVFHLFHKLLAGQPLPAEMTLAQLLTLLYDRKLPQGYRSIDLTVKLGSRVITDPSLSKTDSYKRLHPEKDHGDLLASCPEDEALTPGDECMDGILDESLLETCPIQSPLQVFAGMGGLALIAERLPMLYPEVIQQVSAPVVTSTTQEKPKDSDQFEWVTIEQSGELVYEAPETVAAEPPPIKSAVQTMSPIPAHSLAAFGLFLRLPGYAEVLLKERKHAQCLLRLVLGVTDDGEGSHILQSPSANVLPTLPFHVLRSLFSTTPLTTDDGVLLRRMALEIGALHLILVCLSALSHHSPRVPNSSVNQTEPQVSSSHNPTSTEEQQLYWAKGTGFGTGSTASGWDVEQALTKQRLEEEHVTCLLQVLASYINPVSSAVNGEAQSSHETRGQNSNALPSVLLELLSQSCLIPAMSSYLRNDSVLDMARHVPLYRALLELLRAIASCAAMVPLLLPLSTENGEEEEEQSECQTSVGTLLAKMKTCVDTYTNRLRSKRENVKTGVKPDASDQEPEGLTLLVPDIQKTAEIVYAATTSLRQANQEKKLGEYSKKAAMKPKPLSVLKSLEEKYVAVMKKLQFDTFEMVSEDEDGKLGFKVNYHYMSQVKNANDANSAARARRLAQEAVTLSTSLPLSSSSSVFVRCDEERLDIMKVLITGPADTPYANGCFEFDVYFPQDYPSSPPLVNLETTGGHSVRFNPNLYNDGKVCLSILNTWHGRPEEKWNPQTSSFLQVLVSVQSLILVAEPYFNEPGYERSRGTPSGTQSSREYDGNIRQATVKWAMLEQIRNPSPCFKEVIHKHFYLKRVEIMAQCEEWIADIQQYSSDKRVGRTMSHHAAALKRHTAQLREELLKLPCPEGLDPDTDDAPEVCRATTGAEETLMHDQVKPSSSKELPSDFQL
UniProt O60566, whole entry: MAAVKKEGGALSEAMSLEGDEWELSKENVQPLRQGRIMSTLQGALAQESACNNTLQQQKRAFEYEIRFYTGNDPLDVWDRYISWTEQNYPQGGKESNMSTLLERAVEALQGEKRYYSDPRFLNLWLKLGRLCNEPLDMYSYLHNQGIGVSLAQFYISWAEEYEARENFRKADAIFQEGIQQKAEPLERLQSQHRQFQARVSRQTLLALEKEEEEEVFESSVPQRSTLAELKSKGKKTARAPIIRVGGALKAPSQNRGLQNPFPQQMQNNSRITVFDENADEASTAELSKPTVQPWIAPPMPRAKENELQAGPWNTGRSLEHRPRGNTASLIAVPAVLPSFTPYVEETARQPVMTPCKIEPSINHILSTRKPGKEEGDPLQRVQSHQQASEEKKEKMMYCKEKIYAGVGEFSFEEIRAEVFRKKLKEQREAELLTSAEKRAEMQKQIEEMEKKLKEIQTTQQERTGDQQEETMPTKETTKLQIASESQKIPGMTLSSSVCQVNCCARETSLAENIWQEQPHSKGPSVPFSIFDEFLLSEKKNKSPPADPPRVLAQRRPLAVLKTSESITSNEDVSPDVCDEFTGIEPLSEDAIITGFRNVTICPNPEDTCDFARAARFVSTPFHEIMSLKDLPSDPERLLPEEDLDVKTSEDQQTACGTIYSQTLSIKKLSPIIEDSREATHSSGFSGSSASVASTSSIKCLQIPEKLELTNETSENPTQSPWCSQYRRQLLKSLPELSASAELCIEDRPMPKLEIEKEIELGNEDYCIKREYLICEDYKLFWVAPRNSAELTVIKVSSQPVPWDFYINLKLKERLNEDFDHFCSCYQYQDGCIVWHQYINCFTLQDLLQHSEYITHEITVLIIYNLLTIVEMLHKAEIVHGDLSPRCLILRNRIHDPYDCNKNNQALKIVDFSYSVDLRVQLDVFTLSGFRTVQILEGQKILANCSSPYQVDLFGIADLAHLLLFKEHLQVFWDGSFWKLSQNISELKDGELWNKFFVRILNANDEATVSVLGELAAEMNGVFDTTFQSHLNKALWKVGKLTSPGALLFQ
UniProt Q06055: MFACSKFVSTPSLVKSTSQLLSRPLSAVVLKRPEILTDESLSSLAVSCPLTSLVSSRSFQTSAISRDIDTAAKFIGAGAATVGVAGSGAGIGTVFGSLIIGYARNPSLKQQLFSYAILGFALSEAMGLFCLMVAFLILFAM
UniProt P30049: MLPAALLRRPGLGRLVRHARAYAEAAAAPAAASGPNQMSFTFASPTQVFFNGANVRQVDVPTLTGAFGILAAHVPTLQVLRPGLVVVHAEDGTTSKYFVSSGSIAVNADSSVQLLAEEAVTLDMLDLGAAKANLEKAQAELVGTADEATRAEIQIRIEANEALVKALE

The other results are listed elsewhere or left out.

Compound in this assay: COc1ccc(Cn2ccc3ccc(C(=O)NO)cc32)cc1
Description: dose-dependent thermal stabilisation call (2D-TPP, DLPTP, 10% FDR) (binary (1 = stabilised)); higher = stabilised by the compound. The note with it: system: HL-60 intact cells; concentration range 0.04-10 µM.
ATG12 (UniProt O94817): the “dose-dependent thermal stabilisation call” value was inactive: 0. With ATRX (UniProt P46100), the “dose-dependent thermal stabilisation call” value was inactive: 0. Consider AURKA (UniProt O14965), for which the “dose-dependent thermal stabilisation call” value was inactive: 0. In the case of C12ORF44 (UniProt Q9BSB4), the “dose-dependent thermal stabilisation call” value is inactive: 0. For BAP1 (UniProt Q92560) the value was inactive: 0; for ATP5H (UniProt O75947), inactive: 0.

In the case of C10ORF97 (UniProt Q9H8M7), the “dose-dependent thermal stabilisation call” value is inactive: 0.

For Ataxin-10, the “dose-dependent thermal stabilisation call” value is inactive: 0. For ATG9A (UniProt Q7Z3C6) the value was inactive: 0.

With ARRB2 (UniProt P32121), the “dose-dependent thermal stabilisation call” value was inactive: 0. Then ARS2 (UniProt Q9BXP5), with inactive: 0; and C10ORF2 (UniProt Q96RR1), with inactive: 0.

Take ATPBD4 (UniProt Q7L8W6): the “dose-dependent thermal stabilisation call” value was inactive: 0.

As for BEX1 (UniProt Q9HBH7), the “dose-dependent thermal stabilisation call” value is inactive: 0. For ATP6V1D (UniProt Q9Y5K8) the value was inactive: 0; for ATP6V1A (UniProt P38606), inactive: 0; for ATXN3 (UniProt P54252), inactive: 0. For the target BAG5 (UniProt Q9UL15), the “dose-dependent thermal stabilisation call” value is inactive: 0. Regarding BIRC6 (UniProt Q9NR09), the “dose-dependent thermal stabilisation call” value was inactive: 0. For BDH1 (UniProt Q02338) the value was inactive: 0; for BUB1B (UniProt O60566), inactive: 0; for ATP5G2 (UniProt Q06055), inactive: 0. Consider BCR (UniProt P11274), for which the “dose-dependent thermal stabilisation call” value is inactive: 0. For BAT1, the “dose-dependent thermal stabilisation call” value was inactive: 0. Take ATP6V1H (UniProt Q9UI12): the “dose-dependent thermal stabilisation call” value was inactive: 0. In the case of BIK (UniProt Q13323), the “dose-dependent thermal stabilisation call” value is inactive: 0.

For BIN2 (UniProt Q9UBW5), the “dose-dependent thermal stabilisation call” value was inactive: 0.

Consider ATP5SL (UniProt Q9NW81), for which the “dose-dependent thermal stabilisation call” value is inactive: 0. As to ATP13A2 (UniProt Q9NQ11), the “dose-dependent thermal stabilisation call” value was inactive: 0.

Turning to BID (UniProt P55957), the “dose-dependent thermal stabilisation call” value was inactive: 0. Consider ATP6V1F (UniProt Q16864), for which the “dose-dependent thermal stabilisation call” value was inactive: 0. Consider ASNSD1 (UniProt Q9NWL6), for which the “dose-dependent thermal stabilisation call” value was inactive: 0. Then C12ORF30 (UniProt Q14CX7), with inactive: 0; and UniProt B3KNS4_HUMAN, with inactive: 0. As to ATP7A (UniProt Q04656), the “dose-dependent thermal stabilisation call” value is inactive: 0. As to C12ORF45 (UniProt Q8N5I9), the “dose-dependent thermal stabilisation call” value is inactive: 0.

For the target ATP5D (UniProt P30049), the “dose-dependent thermal stabilisation call” value was inactive: 0.
